PubChem BioAssay AID1159584 – Peter MacCallum Cancer Centre – 2016

- Screen: 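Genes that CDH1-null MCF10A cells selectively depend on to survive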 (primary screen)
- System: human MCF10A breast epithelial cells, parental and CDH1-null
- Reagent: siRNA against human genes
- Read-out: 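ATP luminescence (CellTiter-Glo) viability per line relative to mean mock wells over all plates, and the ratio of CDH1-null to parental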
- Direction: CDH1-null / parental viability ratio: higher = CDH1-null cells survive relatively better than parental; CDH1-null viability vs mock: higher = more viable CDH1-null cells
- Units: CDH1-null viability vs mock in fraction of mock
In all, the deposit lists about 18,000 reagents; this is a random part of them. Further read-outs or replicates are left out here. The record does not give: the amount of reagent, the time to read-out.

IFNA1
- CDH1-null / parental viability ratio: 1.45
- CDH1-null viability vs mock: 0.93

USP1
- CDH1-null / parental viability ratio: 1.11
- CDH1-null viability vs mock: 0.84

FXYD4
- CDH1-null / parental viability ratio: 1.24
- CDH1-null viability vs mock: 1.07

CCDC3
- CDH1-null / parental viability ratio: 1.21
- CDH1-null viability vs mock: 1.09

UTP23
- CDH1-null / parental viability ratio: 1.28
- CDH1-null viability vs mock: 0.64

The list goes on, starting with the last 2 of the part before.
CCDC3
- CDH1-null / parental viability ratio: 1.21
- CDH1-null viability vs mock: 1.09

UTP23
- CDH1-null / parental viability ratio: 1.28
- CDH1-null viability vs mock: 0.64

SRA1
- CDH1-null / parental viability ratio: 1.07
- CDH1-null viability vs mock: 0.49

SPMIP10
- CDH1-null / parental viability ratio: 0.8
- CDH1-null viability vs mock: 0.64

HSCB
- CDH1-null / parental viability ratio: 0.93
- CDH1-null viability vs mock: 0.82

HAL
- CDH1-null / parental viability ratio: 0.85
- CDH1-null viability vs mock: 0.57

GUCA1B
- CDH1-null / parental viability ratio: 0.83
- CDH1-null viability vs mock: 0.62

TARP
- CDH1-null / parental viability ratio: 0.97
- CDH1-null viability vs mock: 0.83

ZBTB24
- CDH1-null / parental viability ratio: 1.01
- CDH1-null viability vs mock: 0.96

ATP6V1C2
- CDH1-null / parental viability ratio: 1.02
- CDH1-null viability vs mock: 0.92

LLGL1
- CDH1-null / parental viability ratio: 0.83
- CDH1-null viability vs mock: 0.6
